According to PMC2958812, “Evidence for a Xer/dif System for Chromosome Resolution in Archaea”:
For at least one entry, the source does not settle the construct or the ends of the probe. A weaker result is weaker than the reference pair of the same experiment. Where a protein sequence is shown, tags need not be part of it.

Target: T1, XerA (Pab0255) (Pyrococcus abyssi) (UniProt Q9V1P5)
T1 sequence (looked up): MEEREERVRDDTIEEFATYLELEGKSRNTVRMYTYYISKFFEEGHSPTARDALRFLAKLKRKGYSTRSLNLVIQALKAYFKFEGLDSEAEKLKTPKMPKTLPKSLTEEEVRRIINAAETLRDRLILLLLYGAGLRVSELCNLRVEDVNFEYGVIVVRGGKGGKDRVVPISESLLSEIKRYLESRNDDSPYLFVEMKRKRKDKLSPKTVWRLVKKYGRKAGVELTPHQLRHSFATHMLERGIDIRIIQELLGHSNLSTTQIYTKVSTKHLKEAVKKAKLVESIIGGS
Assay: competition with a labelled probe
Details: 20 C, 40 pmol XerA, increasing poly(dIdC)2 competitor, much lower affinity than dif; EMSA: 0.5 uM labeled DNA, 50 mM Tris pH 7.5, 30 mM NaCl, 0.5 ug poly(dIdC).poly(dIdC), 20 ul, 30 min at 20 or 65 C; native PAGE in TGE at 4 C; recombinant protein; residues 1-286; protein details: N-terminal His6 (MHHHHHH, from forward primer); label: 5'-32P on top strand

“GTTAACTATCTTTTCCGCCTCCGGAGCCGGAGGTCCCGTGTTG (double strand) [attP (SSV1 minimal)]”: binds more weakly.
